{"sequences": {"note": "Protein sequences, listed by entry. Tags and fused reporters are not part of them. Lines headed by an entry give the natural chain unless they say otherwise; changes in a name come on top. Chains listed by the source or under a name are the forms on record and can include a tag or linker.", "sortase-labelled N-terminally biotinylated eIF4E (P06730, form named)": "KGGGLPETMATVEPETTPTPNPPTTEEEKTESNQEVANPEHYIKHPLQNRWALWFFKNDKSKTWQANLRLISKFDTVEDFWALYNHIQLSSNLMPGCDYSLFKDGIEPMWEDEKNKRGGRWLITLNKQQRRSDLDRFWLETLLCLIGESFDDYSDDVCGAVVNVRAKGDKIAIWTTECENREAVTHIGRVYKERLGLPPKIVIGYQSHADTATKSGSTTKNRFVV"}, "source": "patent US20250346630A1", "about": "“Engineering Peptides Using Peptide Epitope Linker Evolution” (AGENCY FOR SCIENCE, TECHNOLOGY AND RESEARCH, priority 2022, published 2025)", "target": "sortase-labelled N-terminally biotinylated eIF4E (UniProt P06730)", "experiment": "M13 linear 12mer phage selection on immobilised biotinylated eIF4E, NGS abundance heat map, 3 replicate columns [CONT.) D]", "note": "No constants are given. Whether binding was seen depends on the method and setting. Some results given as binding are weak or reduced against the parent protein; the word gives no strength.", "data": [{"binder": "SLTYTREFLRSL", "note": "[…]", "values": [{"measurement": "binding", "result": "binds"}]}]}
